Test results published in patent US20170001988A1, “PIPERIDINE AND PIPERAZINE DERIVATIVES AND THEIR USE IN TREATING VIRAL INFECTIONS AND CANCER” (THE UNITED STATES OF AMERICA, AS REPRESENTED BY THE …, priority 2013, published 2017).
For at least one compound, name, drawing or mass did not settle the structure. Some entries repeat one wording, which the source may state once for all of them.

Test system: HCV-Luc
Test: HCV-Luc assay of (S)-CCZ combinations, MacSynergy II and CalcuSyn analysis
Format: cell-based
Details: combination with (S)-CCZ
Protocol: Direct-acting antivirals, such as telaprevir and daclatasvir, were recently approved for therapy of hepatitis C. […] Using the MacSynergy II program based on Bliss independence model, three-dimensional surface plots were generated and log volume of synergism was calculated for each combination. The results were also analyzed with the CalcuSyn program, in which the combination indices were calculated.

## CC(C)(C)NC(=O)N[C@H](C(=O)N1C[C@H]2[C@@H]([C@H]1C(=O)NC(CC1CCC1)C(=O)C(N)=O)C2(C)C)C(C)(C)C (stereo partly shown) [Boceprevir]
  antiviral effect of (S)-CCZ with the drug named: highly synergistic
